In publication PMC7819943, “Rice protein-binding microarrays: a tool to detect cis-acting elements near promoter regions in rice”:
This is one part of the list.

What follows are sequences tested against T1, OsSMF1 (Oryza sativa, UniProt Q6ZLB0 1-436) (assay: protein-binding microarray (RPBM); PBS, 2% BSA, 51.3 ng/ul salmon testes DNA, 50 uM zinc acetate, 200 nM TF, 25 C, 1 h; high values mean tight binding). Details: protein: recombinant; tags: N-terminal polyhistidine and DsRed monomer fusion (pET32a); chain copies: 2; label: CyDye5-dUTP incorporated in the synthesized complementary strand; 3' TTTTT single-stranded linker to array surface; dsDNA, one strand shown.
T1 sequence: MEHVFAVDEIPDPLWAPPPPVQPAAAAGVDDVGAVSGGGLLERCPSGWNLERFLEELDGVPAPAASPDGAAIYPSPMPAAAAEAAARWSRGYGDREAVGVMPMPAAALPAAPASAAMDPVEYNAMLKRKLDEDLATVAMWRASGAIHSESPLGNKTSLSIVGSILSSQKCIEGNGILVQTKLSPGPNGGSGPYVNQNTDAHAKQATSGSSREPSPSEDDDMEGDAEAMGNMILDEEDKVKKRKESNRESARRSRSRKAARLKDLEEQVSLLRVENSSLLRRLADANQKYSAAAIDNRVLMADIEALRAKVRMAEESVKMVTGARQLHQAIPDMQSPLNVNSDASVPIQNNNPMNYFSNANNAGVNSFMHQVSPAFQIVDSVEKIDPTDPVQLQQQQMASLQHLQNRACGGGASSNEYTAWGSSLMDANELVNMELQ
In short: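 Transcription factors were made in E. coli BL21-CodonPlus as N-terminal fusions to a polyhistidine tag and DsRed, then purified on Ni–NTA. After primer extension with Cy5-dUTP and blocking with 2% BSA, a custom Agilent array was exposed for 1 h at 25 °C to 200 nM protein in PBS, 2% BSA, salmon testes DNA and 50 µM zinc acetate. Washed arrays were scanned on an Axon 4000B, and the binding signal is per-feature fluorescence intensity in arbitrary units.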

With “CAACGCACAGCAAATCGGGATGGACGTGTGTCGCCTGGGTCGGAGTCACCTAGTGCAG” as the sequence, how does the binding signal read?
Its binding signal is 3880 fluorescence intensity (a.u.).

“GAGGACGGTGCCACCGTGGTGCGTCACAGCTGGTCGCTCGCGGAGTCACCTAGTGCAG” was tested. Which binding signal did it give?
Its binding signal is 8180 fluorescence intensity (a.u.).

For “GTTTATGGAAACTATATTAGTGTTTTGGATTGGGAATGGGCGGAGTCACCTAGTGCAG”, which binding signal is on record?
Its binding signal is 24900 fluorescence intensity (a.u.).

For “CACTTAACTATACTAATGCTCCACGTGGATACTTCTATTTCGGAGTCACCTAGTGCAG”, which binding signal is on record?
The binding signal was 11100 fluorescence intensity (a.u.).

For “TCACGTAGATGTGTCGATGGTCGTCCCGCGAGCTGACTTGCGGAGTCACCTAGTGCAG”, which binding signal is on record?
The binding signal was 3190 fluorescence intensity (a.u.).

How did the binding signal turn out when “TTCATCCTATCACATCAAATATTTGGATACATACATGGAGCGGAGTCACCTAGTGCAG” was run?
The binding signal was 45500 fluorescence intensity (a.u.).

“TTGATCATTAAATAAAAGTTACGAAAGTTCAATGATCATGCGGAGTCACCTAGTGCAG” was tested. Which binding signal did it give?
The binding signal was 3360 fluorescence intensity (a.u.).

For “GTCGCTGTCTACCACGGAGCCAAACCATCCACGTAGGAGACGGAGTCACCTAGTGCAG”, which binding signal is on record?
Its binding signal is 6980 fluorescence intensity (a.u.).

Which binding signal does the source give for “CTTATCAAGACTCGTGGCGTGGAAAGCTTTACAGGTGAGGCGGAGTCACCTAGTGCAG” here?
Its binding signal is 4710 fluorescence intensity (a.u.).

For “TTGTATTCATTTTAATGTAAACTAGTATACGTCATACACACGGAGTCACCTAGTGCAG”, which binding signal is on record?
The binding signal was 7480 fluorescence intensity (a.u.).

How did the binding signal turn out when “CTTCTACTGCTTTACGTGTCACTGCCTATAATAGTACTACCGGAGTCACCTAGTGCAG” was run?
Its binding signal is 5720 fluorescence intensity (a.u.).

“TGTGTGCGTGTGTTGTGACTTATGATGTGTTTCTTAAGAACGGAGTCACCTAGTGCAG” was tested. Which binding signal did it give?
Its binding signal is 4170 fluorescence intensity (a.u.).

How did the binding signal turn out when “GCTGAGTAGAGCTCGAGCATGACTGTACTGGTGAAGCTTGCGGAGTCACCTAGTGCAG” was run?
The binding signal was 4940 fluorescence intensity (a.u.).

How did the binding signal turn out when “TATGGTAGATTATACTGTAGTTCGATGGGCACGTGTACCACGGAGTCACCTAGTGCAG” was run?
Its binding signal is 3900 fluorescence intensity (a.u.).

Which binding signal does the source give for “CGCCAAAACCTATGTGGCCCATCATCCGCCGGTCCGTGTGCGGAGTCACCTAGTGCAG” here?
Its binding signal is 4010 fluorescence intensity (a.u.).

For “GAGCCGAGACTGAGAGAGAGATCGGCGCCGGCTGTGAACGCGGAGTCACCTAGTGCAG”, which binding signal is on record?
The binding signal was 48100 fluorescence intensity (a.u.).

How did the binding signal turn out when “CTCGCTGATGTCATTTCTTGCTTGACCATTTCTGACAGATCGGAGTCACCTAGTGCAG” was run?
The binding signal was 8290 fluorescence intensity (a.u.).

How did the binding signal turn out when “GCCCAAGTAGATTTGGACTCTCGAATCCTAGTCGGATCCACGGAGTCACCTAGTGCAG” was run?
The binding signal was 4720 fluorescence intensity (a.u.).

For “ATTGATTGACCGAGCGCACTACTCTTTATCTTTTCGATTGCGGAGTCACCTAGTGCAG”, which binding signal is on record?
Its binding signal is 3410 fluorescence intensity (a.u.).

How did the binding signal turn out when “GAGAGAGTAGCTAGGAGGCTTTAATACACACGTCACACTGCGGAGTCACCTAGTGCAG” was run?
Its binding signal is 11900 fluorescence intensity (a.u.).

Which binding signal does the source give for “CTCACCTTGCCCCTTCACACTCGTCACTCGCTCCAACCAGCGGAGTCACCTAGTGCAG” here?
Its binding signal is 4640 fluorescence intensity (a.u.).

How did the binding signal turn out when “TCTATGAGATGCGTGTGTATAGTAACTGATGTGGATCAGGCGGAGTCACCTAGTGCAG” was run?
Its binding signal is 3980 fluorescence intensity (a.u.).

How did the binding signal turn out when “GTCCATCCACTTTGCCCTGCCGACAAAATTCTCAGGTGGTCGGAGTCACCTAGTGCAG” was run?
Its binding signal is 16200 fluorescence intensity (a.u.).
